PubChem BioAssay AID1259308 – NCATS, 2017
Assay: 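Candidate targets for better recombinant protein yield in mammalian cells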 (primary screen). Cell system: human HEK293 embryonic kidney cells stably expressing firefly luciferase (HEK-CMV-Luc2-Hygro). Reagent: single siRNA against human genes, 0.8 pmol siRNA per well. Timing: 72 h. Detection: 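Reporter luminescence and viable-cell signal on separate replicate plates, given as percent of non-targeting control and median/MAD z-scores, plus per-cell luciferase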. Scale: total luciferase, z-score and total luciferase, % of control: higher = more reporter protein produced; luciferase per cell, z-score: higher = more reporter output per viable cell; viable cells, % of control: higher = more viable cells. Rule for the call: 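An siRNA counts as active if its total luciferase robust z-score exceeds 3; genes with two or more such siRNAs out of three were retested with fresh siRNAs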. Calls: active = raised luciferase; inactive = no rise.
Shown is one part, drawn at random, of about 59,000 reagents. About 1,510 of them (2.6%) count as active. 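Calls use total luciferase alone and ignore viability, so some active siRNAs may act by altering cell number.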 No sequences are given here.

The first 3 entries, ahead of the listing:
Target gene | PubChem SID | total luciferase, z-score | total luciferase, % of control | luciferase per cell, z-score | viable cells, % of control | Call
IHO1 (interactor of HORMAD1 1) | SID160764310 | -0.59 | 70.2 | -0.591 | 91.6 | inactive
IHO1 (interactor of HORMAD1 1) | SID160764311 | -0.68 | 68.4 | -0.661 | 90.9 | inactive
IHO1 (interactor of HORMAD1 1) | SID160764312 | -1.23 | 57.5 | -2.43 | 122 | inactive

The listing, repeating the preview:
Target gene | PubChem SID | total luciferase, z-score | total luciferase, % of control | luciferase per cell, z-score | viable cells, % of control | Call
IHO1 (interactor of HORMAD1 1) | SID160764310 | -0.59 | 70.2 | -0.591 | 91.6 | inactive
IHO1 (interactor of HORMAD1 1) | SID160764311 | -0.68 | 68.4 | -0.661 | 90.9 | inactive
IHO1 (interactor of HORMAD1 1) | SID160764312 | -1.23 | 57.5 | -2.43 | 122 | inactive
ILF2 (interleukin enhancer binding factor 2) | SID160775807 | 1.81 | 118 | 1.27 | 94.4 | inactive
ILF2 (interleukin enhancer binding factor 2) | SID160775808 | 2.36 | 129 | 1.55 | 95.8 | inactive
ILF2 (interleukin enhancer binding factor 2) | SID160775811 | -1.39 | 54.3 | -1.28 | 85 | inactive
ABITRAM (actin binding transcription modulator) | SID160742557 | -1.12 | 59.7 | -1.2 | 91.5 | inactive
ABITRAM (actin binding transcription modulator) | SID160742558 | 0.351 | 88.9 | 0.57 | 85.5 | inactive
ABITRAM (actin binding transcription modulator) | SID160742559 | 1.27 | 107 | 1.28 | 85.5 | inactive
INTS7 (integrator complex subunit 7) | SID160732842 | 0.318 | 88.2 | 0.375 | 89.3 | inactive
INTS7 (integrator complex subunit 7) | SID160737198 | 4.98 | 181 | 3.42 | 82.1 | active
INTS7 (integrator complex subunit 7) | SID160737199 | 1.42 | 110 | 0.436 | 110 | inactive
KLRC2 (killer cell lectin like receptor C2) | SID160776311 | -0.212 | 77.7 | 0.145 | 83.5 | inactive
KLRC2 (killer cell lectin like receptor C2) | SID160776312 | -0.8 | 66 | -0.734 | 89.4 | inactive
KLRC2 (killer cell lectin like receptor C2) | SID160776313 | 0.546 | 92.8 | -0.0272 | 104 | inactive
CACNA2D1 | SID160776524 | -0.366 | 74.6 | -0.655 | 99.1 | inactive
CACNA2D1 | SID160776535 | -0.609 | 69.8 | -0.911 | 99.1 | inactive
CACNA2D1 | SID160776545 | -0.534 | 71.3 | -1.3 | 112 | inactive
FCER1G (Fc epsilon receptor Ig) | SID160730787 | -0.191 | 78.1 | -0.404 | 97.1 | inactive
FCER1G (Fc epsilon receptor Ig) | SID160764325 | -0.0254 | 81.4 | -0.548 | 105 | inactive
FCER1G (Fc epsilon receptor Ig) | SID160764346 | 0.491 | 91.7 | -0.429 | 115 | inactive
LTC4S (leukotriene C4 synthase) | SID160723911 | 1.64 | 115 | 1.15 | 94.6 | inactive
LTC4S (leukotriene C4 synthase) | SID160776775 | 0.126 | 84.4 | 0.0261 | 93.7 | inactive
LTC4S (leukotriene C4 synthase) | SID160776776 | -0.511 | 71.7 | 0.00886 | 80 | inactive
ZBTB18 (zinc finger and BTB domain containing 18) | SID160728508 | -0.0741 | 80.4 | 0.505 | 78.7 | inactive
ZBTB18 (zinc finger and BTB domain containing 18) | SID160728509 | -0.207 | 77.8 | 0.37 | 78.9 | inactive
ZBTB18 (zinc finger and BTB domain containing 18) | SID160728510 | -0.397 | 74 | -0.694 | 99.3 | inactive
MRPS23 (mitochondrial ribosomal protein S23) | SID160741149 | 0.951 | 101 | 2.58 | 57.1 | inactive
MRPS23 (mitochondrial ribosomal protein S23) | SID160741150 | 1.22 | 106 | 0.726 | 97.9 | inactive
MRPS23 (mitochondrial ribosomal protein S23) | SID160741151 | -0.321 | 75.5 | -1.06 | 111 | inactive
DEPDC1 (DEP domain containing 1) | SID160743965 | 1.36 | 109 | 2.34 | 65.7 | inactive
DEPDC1 (DEP domain containing 1) | SID160743966 | 0.37 | 89.3 | 0.705 | 82.8 | inactive
DEPDC1 (DEP domain containing 1) | SID160743967 | -1.92 | 43.8 | -0.347 | 53.6 | inactive
SAXO4 (stabilizer of axonemal microtubules 4) | SID160732692 | 3.97 | 161 | 2.4 | 95.5 | active
SAXO4 (stabilizer of axonemal microtubules 4) | SID160761470 | -0.693 | 68.1 | 0.624 | 64.6 | inactive
SAXO4 (stabilizer of axonemal microtubules 4) | SID160761471 | 0.808 | 98 | 0.531 | 95.2 | inactive
HOXA5 (homeobox A5) | SID160731074 | 3.22 | 146 | 2.52 | 84.1 | active
HOXA5 (homeobox A5) | SID160775168 | 1.84 | 118 | 0.865 | 105 | inactive
HOXA5 (homeobox A5) | SID160775169 | -1.4 | 54.1 | -1.9 | 99.7 | inactive
GLI1 (GLI family zinc finger 1) | SID160771375 | -0.374 | 74.4 | -0.711 | 100 | inactive
GLI1 (GLI family zinc finger 1) | SID160771383 | 0.211 | 86.1 | 1.54 | 64.1 | inactive
GLI1 (GLI family zinc finger 1) | SID160771393 | -1.7 | 48.1 | -1.32 | 76.1 | inactive
SPOPL (speckle type BTB/POZ protein like) | SID160764280 | 4.36 | 169 | 2.39 | 100 | active
SPOPL (speckle type BTB/POZ protein like) | SID160764281 | 0.198 | 85.8 | 0.161 | 91.9 | inactive
SPOPL (speckle type BTB/POZ protein like) | SID160764283 | 0.667 | 95.1 | -0.282 | 115 | inactive
MT1CP (metallothionein 1C, pseudogene) | SID160725448 | 0.58 | 93.4 | 1.98 | 61.9 | inactive
MT1CP (metallothionein 1C, pseudogene) | SID160725449 | 3.44 | 150 | 2.59 | 85 | active
MT1CP (metallothionein 1C, pseudogene) | SID160725450 | -0.259 | 76.7 | -0.676 | 102 | inactive
TAAR5 (trace amine associated receptor 5) | SID160721317 | 1.53 | 112 | 0.883 | 99.5 | inactive
TAAR5 (trace amine associated receptor 5) | SID160721318 | 0.536 | 92.5 | -0.128 | 107 | inactive
TAAR5 (trace amine associated receptor 5) | SID160721319 | -0.281 | 76.3 | 0.577 | 73.2 | inactive
HMHB1 (histocompatibility minor HB-1) | SID160733682 | -0.443 | 73.1 | -0.413 | 91 | inactive
HMHB1 (histocompatibility minor HB-1) | SID160733683 | 0.935 | 100 | 0.674 | 94 | inactive
HMHB1 (histocompatibility minor HB-1) | SID160746749 | 2.04 | 122 | 2.57 | 69.5 | inactive
NDUFAF2P1 (NDUFAF2 pseudogene 1) | SID160726489 | 1.1 | 104 | 0.511 | 101 | inactive
NDUFAF2P1 (NDUFAF2 pseudogene 1) | SID160771307 | -0.669 | 68.6 | 0.169 | 73.3 | inactive
NDUFAF2P1 (NDUFAF2 pseudogene 1) | SID160771308 | 1.83 | 118 | 2.53 | 67.9 | inactive
